Values quoted from earlier work, collected in publication PMC12299926 (Pharmaceuticals, 2025).

Details: 16 volunteers; subtherapeutic doses with propolis (375 mg/day); ref [21]; cited from earlier work

CC(C)(C(=O)O)c1ccc(C(O)CCCN2CCC(C(O)(c3ccccc3)c3ccccc3)CC2)cc1 (stereo not shown) [fexofenadine]
change of AUC with propolis: decreased
